This note sets out measurements from patent US5314998A, “Organic solvent-soluble metal-azo and metal-azomethine dyes” (Minnesota Mining and Manufacturing Company, priority 1992, dated 1994).

Data set [1] can be described thus: Thermal transfer of dye, donor sheet B to receptor sheet B, image density.
A short description of data set [2]: Thermal transfer of dye, donor sheet A to receptor sheet B, image density.

Turning to `CC(=O)C=C(C)[O-].CCc1ccncc1.[Cr+3].[O-]c1ccccc1N=Nc1ccccc1[O-]` [Compound 31, [[2,2-azobis[phenolato]](-2)-N,O,O](2,4-pentanedionato-O,O)(4-ethylpyridine)chromium], the “Image Density (Reflectance Optical Density)” value (shortened to “Image Density”) in data set [1] (Level 1) is given as 0.08; in data set [1] (Level 2), 0.15; in data set [1] (Level 3), 0.24; in data set [1] (Level 4), 0.31; in data set [1] (Level 5), 0.41; in data set [1] (Level 6), 0.51. The “Image Density” value in data set [1] (Level 7) is on record as 0.59; in data set [1] (Level 8), 0.62; in data set [2] (Level 1), 0.09; in data set [2] (Level 2) it was 0.18; in data set [2] (Level 3), 0.28; in data set [2] (Level 4), 0.36. The “Image Density” value is 0.44 in data set [2] (Level 5), 0.50 in data set [2] (Level 6), 0.59 in data set [2] (Level 7) and 0.67 in data set [2] (Level 8).

On to “[6-[[(2-hydroxy-5-nitrophenyl)imino]methyl]-3,5-dimethoxyphenolato-N,O,O](3-butylpyridine)(2,4-pentanedionato-O,O)chromium [Compound 35]”, for which the “Image Density” value is listed as 0.04 in data set [2] (Level 1); 0.08 in data set [2] (Level 2); 0.12 in data set [2] (Level 3); 0.15 in data set [2] (Level 4); 0.18 in data set [2] (Level 5); 0.23 in data set [2] (Level 6). In addition, the “Image Density” value in data set [2] (Level 7) stood at 0.26; in data set [2] (Level 8) it was 0.31.
